From patent publication US9480668B2, “Blood flow promoting agent” (KYOWA HAKKO BIO CO., LTD., priority 2012, dated 2016)
Some results were stated once for a whole list of compounds, not compound by compound.

Test system: thoracic aorta isolated from a rat
Assay: Magnus method: vasodilatory potency on aortic ring, relaxation of Norepinephrine 0.3 μM-induced contraction
Conditions: L-citrulline 300 μM, single addition; vasoconstriction induced by 0.3 μM Norepinephrine

NC(=O)NCCC[C@H](N)C(=O)O [L-citrulline] was tested, and the “vascular relaxation rate (%)” value was 7-10%.
